According to the supplement of paper PMC10849652:
Some of the results follow.

Sequences of proteins named here, by UniProt entry; tags and fusion partners are left off. A change or cut given only in a name is not applied to a line headed by its entry.
UniProt O43324: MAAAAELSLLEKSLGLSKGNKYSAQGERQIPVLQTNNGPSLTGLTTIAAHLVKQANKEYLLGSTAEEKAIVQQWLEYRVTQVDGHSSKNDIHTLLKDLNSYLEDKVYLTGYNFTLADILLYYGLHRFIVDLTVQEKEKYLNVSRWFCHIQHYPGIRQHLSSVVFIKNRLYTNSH
UniProt P78344: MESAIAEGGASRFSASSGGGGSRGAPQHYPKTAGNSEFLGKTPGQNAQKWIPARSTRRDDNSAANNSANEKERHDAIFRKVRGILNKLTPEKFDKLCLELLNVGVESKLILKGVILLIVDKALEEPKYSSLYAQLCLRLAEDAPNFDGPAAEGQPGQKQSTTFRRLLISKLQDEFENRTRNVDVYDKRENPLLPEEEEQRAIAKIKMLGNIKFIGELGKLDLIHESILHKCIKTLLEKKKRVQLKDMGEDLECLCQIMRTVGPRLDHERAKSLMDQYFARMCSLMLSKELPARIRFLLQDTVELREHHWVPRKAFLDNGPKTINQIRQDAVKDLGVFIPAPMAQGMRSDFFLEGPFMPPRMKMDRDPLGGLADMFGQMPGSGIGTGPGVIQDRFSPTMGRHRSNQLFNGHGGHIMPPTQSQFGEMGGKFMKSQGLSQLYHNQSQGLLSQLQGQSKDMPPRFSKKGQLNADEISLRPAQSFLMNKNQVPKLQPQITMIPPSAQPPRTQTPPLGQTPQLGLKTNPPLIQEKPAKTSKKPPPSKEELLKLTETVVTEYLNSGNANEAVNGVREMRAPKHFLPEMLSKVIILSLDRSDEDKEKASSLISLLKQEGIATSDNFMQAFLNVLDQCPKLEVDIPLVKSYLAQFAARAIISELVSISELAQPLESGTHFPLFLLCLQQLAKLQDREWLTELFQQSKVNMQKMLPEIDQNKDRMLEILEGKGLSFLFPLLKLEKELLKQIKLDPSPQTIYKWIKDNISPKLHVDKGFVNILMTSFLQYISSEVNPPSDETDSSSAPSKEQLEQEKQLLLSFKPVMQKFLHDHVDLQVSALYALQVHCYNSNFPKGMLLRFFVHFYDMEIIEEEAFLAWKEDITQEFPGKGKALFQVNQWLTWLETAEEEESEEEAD
UniProt O95834: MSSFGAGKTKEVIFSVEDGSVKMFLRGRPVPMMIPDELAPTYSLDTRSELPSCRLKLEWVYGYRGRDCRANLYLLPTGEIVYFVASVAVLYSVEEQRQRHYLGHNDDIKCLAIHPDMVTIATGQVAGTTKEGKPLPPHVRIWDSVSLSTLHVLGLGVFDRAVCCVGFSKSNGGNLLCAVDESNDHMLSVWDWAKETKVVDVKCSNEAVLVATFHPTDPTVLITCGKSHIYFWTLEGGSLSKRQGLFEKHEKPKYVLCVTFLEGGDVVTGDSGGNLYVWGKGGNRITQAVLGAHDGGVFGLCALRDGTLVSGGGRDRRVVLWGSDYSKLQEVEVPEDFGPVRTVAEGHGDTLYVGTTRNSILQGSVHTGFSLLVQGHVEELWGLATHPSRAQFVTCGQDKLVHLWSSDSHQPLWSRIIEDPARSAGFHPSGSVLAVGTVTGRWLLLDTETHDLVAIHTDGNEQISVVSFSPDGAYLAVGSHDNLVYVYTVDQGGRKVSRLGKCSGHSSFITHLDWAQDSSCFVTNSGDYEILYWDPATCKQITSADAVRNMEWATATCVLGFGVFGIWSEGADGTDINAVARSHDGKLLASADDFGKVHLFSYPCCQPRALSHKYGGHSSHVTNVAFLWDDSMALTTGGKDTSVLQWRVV
UniProt Q14240, whole entry, looked up: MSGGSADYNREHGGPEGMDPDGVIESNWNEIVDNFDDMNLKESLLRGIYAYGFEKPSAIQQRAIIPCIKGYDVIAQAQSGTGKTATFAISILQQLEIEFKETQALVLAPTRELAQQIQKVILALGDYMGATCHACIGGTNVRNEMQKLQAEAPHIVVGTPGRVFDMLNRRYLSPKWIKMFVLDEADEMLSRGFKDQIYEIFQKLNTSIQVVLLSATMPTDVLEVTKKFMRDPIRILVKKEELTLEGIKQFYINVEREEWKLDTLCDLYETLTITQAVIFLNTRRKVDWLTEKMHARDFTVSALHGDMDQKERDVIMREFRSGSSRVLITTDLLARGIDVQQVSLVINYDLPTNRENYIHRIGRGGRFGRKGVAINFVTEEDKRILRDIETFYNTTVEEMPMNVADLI
UniProt P41214: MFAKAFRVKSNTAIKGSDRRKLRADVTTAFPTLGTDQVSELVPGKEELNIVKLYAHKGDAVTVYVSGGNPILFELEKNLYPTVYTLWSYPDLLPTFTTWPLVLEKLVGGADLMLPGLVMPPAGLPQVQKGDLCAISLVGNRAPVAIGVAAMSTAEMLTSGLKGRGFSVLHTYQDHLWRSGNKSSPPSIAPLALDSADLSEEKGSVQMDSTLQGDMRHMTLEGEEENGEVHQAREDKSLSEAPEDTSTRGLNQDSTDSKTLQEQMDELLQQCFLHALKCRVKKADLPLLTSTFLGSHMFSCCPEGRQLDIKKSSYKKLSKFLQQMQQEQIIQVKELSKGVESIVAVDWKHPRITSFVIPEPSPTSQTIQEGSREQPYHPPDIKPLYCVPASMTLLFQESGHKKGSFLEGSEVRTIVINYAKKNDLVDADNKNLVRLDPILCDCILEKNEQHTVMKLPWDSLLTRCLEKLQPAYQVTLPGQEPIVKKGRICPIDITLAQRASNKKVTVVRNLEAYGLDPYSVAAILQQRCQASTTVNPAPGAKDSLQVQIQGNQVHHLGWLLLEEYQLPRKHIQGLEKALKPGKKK
UniProt Q8N766: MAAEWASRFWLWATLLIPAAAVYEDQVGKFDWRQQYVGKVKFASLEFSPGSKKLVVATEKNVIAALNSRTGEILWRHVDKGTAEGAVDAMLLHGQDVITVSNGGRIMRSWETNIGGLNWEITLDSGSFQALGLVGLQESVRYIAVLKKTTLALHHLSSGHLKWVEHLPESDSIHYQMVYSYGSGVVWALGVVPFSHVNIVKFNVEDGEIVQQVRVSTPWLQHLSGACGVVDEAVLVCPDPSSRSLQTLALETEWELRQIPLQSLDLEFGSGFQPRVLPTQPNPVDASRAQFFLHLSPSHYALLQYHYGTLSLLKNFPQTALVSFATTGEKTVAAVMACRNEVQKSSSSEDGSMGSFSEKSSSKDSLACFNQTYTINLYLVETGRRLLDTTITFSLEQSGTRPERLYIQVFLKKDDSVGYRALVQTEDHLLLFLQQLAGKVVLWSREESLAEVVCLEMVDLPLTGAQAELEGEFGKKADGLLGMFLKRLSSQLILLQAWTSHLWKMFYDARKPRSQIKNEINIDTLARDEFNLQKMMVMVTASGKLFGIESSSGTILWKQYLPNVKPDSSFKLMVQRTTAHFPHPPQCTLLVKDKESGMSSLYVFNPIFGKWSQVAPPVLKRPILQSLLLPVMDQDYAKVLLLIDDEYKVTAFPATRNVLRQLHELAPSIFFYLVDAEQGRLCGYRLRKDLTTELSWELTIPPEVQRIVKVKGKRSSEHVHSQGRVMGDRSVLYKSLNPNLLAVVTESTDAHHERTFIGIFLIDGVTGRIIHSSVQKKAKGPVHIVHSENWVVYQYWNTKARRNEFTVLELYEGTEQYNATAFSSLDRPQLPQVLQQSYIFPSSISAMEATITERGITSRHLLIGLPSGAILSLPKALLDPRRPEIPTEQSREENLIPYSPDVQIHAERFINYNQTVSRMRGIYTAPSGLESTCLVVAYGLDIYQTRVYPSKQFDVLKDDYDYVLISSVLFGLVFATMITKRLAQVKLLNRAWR
UniProt Q9BV81: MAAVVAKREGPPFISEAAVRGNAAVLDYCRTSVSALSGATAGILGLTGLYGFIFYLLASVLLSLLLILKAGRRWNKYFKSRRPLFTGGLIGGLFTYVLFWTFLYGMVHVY
UniProt Q15029: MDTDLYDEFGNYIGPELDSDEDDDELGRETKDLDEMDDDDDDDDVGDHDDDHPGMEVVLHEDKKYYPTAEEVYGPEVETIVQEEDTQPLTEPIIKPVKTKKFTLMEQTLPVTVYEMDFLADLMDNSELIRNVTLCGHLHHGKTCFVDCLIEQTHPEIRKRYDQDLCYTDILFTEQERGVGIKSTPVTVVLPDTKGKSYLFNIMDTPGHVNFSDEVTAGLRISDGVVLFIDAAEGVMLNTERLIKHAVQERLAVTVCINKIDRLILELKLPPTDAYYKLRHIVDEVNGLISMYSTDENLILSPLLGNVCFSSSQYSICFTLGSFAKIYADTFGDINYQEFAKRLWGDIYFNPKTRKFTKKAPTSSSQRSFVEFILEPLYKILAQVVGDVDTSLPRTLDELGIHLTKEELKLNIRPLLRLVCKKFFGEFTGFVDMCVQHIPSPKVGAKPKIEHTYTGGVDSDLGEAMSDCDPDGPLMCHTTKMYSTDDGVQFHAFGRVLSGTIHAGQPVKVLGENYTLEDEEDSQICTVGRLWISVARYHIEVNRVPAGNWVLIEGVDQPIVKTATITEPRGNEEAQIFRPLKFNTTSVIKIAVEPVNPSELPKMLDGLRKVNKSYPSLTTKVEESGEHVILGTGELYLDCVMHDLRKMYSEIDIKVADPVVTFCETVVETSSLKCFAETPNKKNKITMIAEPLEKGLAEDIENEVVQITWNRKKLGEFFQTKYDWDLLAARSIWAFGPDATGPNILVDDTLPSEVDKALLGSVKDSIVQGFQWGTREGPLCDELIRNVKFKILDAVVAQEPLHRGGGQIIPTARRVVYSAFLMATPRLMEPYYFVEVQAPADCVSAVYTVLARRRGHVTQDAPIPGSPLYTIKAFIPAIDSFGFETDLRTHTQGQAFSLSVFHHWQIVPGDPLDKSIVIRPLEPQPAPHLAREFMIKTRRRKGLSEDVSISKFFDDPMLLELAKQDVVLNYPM
UniProt P06733, whole entry, looked up: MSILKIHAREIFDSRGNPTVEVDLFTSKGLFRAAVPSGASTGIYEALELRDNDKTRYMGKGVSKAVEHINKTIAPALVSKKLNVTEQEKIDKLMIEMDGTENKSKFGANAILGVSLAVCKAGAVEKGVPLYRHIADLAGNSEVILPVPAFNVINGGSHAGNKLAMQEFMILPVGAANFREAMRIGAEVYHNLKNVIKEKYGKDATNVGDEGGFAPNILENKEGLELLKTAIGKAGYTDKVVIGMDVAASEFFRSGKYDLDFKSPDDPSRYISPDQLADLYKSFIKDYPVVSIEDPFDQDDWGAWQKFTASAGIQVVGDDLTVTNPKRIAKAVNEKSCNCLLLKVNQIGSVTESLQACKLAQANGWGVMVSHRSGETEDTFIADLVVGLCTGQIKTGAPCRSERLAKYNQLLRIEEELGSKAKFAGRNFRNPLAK
UniProt Q05639, whole entry, looked up: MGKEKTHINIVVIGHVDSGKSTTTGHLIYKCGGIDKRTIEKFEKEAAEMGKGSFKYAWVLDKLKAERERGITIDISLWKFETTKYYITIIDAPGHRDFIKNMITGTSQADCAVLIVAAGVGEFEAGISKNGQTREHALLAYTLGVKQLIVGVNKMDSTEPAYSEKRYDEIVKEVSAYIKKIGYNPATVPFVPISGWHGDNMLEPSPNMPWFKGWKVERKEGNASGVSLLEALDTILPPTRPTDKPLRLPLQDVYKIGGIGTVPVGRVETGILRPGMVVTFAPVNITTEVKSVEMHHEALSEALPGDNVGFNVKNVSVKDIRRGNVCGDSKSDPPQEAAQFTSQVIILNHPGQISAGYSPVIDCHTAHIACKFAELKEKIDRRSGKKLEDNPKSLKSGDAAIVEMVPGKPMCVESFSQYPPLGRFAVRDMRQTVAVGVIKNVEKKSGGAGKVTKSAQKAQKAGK
UniProt Q5VTE0, whole entry, looked up: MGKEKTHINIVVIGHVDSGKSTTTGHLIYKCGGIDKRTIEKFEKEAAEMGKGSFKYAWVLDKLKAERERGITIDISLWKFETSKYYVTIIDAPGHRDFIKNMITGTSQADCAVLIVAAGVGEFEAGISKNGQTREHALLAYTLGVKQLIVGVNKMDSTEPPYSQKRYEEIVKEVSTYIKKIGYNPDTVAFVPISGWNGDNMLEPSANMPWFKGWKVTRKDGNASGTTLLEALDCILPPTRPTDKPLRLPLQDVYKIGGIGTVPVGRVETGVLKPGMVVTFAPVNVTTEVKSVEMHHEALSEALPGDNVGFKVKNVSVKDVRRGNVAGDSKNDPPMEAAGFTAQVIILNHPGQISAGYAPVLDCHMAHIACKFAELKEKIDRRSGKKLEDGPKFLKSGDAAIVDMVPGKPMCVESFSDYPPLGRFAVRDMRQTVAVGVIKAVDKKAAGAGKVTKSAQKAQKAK
UniProt P60228, whole entry, looked up: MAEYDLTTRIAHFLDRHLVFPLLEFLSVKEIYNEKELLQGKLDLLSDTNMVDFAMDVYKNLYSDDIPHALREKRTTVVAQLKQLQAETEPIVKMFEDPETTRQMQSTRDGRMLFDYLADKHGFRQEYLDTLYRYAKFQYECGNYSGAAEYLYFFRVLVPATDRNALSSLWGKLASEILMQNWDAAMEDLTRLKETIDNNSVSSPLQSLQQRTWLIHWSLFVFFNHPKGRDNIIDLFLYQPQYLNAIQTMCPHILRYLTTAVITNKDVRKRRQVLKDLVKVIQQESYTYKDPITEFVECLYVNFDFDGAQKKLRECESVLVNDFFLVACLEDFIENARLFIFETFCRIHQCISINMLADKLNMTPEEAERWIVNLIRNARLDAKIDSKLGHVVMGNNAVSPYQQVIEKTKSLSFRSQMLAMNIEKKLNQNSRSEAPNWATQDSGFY

Experiments:
Assay in all cases: log2 fold change, soluble protein after heating vs DMSO (PISA); higher = thermal stabilisation; K562 cells, 10 uM, 30 min; active = over 0.2 and 3.5 SD of the protein, either way, in both replicates (recomputed)
[1] = compound: NC(=O)Nc1cc(-c2cccc(F)c2)sc1C(=O)N[C@H]1CCCNC1
Outline: (§1)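 Soluble protein was defined as the supernatant after 21,000xg for 90 min. It came from K562 cells at 2×10^6 cells/mL given 10 μM compound for 30 min, heated in aliquots for 3 min across 48°C-58°C, pooled, and extracted in PBS with 0.5% NP-40 at 4°C, and was quantified by TMTpro 16plex LC-MS/MS with equalised channel sums. Thermal stability against control samples, from duplicates, is reported as log2 fold change.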

[2] = compound: NC(=O)c1cnc(N[C@@H]2CCCC[C@@H]2N)nc1Nc1cccc(-n2nccn2)c1
Outline: as §1

[3] = compound: NC1(c2ccc(-c3nc4ccn5c(=O)[nH]nc5c4cc3-c3ccccc3)cc2)CCC1
Outline: as §1

[4] = compound: NCC(=O)Nc1ccc(-n2nc(C(F)(F)F)cc2-c2ccc3c(ccc4ccccc43)c2)cc1
Outline: as §1

entinostat = compound: Nc1ccccc1NC(=O)c1ccc(CNC(=O)OCc2cccnc2)cc1 [entinostat]
Outline: as §1

vorinostat = compound: O=C(CCCCCCC(=O)Nc1ccccc1)NO [vorinostat]
Outline: as §1

citarinostat = compound: O=C(CCCCCCNC(=O)c1cnc(N(c2ccccc2)c2ccccc2Cl)nc1)NO [citarinostat]
Outline: as §1

silmitasertib = compound: O=C(O)c1ccc2c(c1)nc(Nc1cccc(Cl)c1)c1ccncc12 [silmitasertib]
Outline: as §1

[5] = compound: O=C1NC(=O)C(c2cnc3ccccn23)=C1c1cn2c3c(cc(F)cc13)CN(C(=O)N1CCCCC1)CC2
Outline: as §1

[6] = compound: c1cc(OCCN2CCCCC2)cc(-c2n[nH]c3ccc(-c4nnc[nH]4)cc23)c1
Outline: as §1

entospletinib = compound: c1cn2cc(-c3ccc4cn[nH]c4c3)nc(Nc3ccc(N4CCOCC4)cc3)c2n1 [entospletinib]
Outline: as §1

Measured: log2 fold change

EMC10 (UniProt Q5UCC4)
inactive: [1] -0.003 | [2] 0.002 | [3] -0.064 | [4] 0.021 | entinostat 0.03 | vorinostat 0.041 | citarinostat 0.007 | silmitasertib -0.04 | [5] -0.011 | [6] -0.021 | entospletinib 0.015

ELMOD2 (UniProt Q8IZ81)
inactive: [1] 0.004 | [2] -0.041 | [3] -0.071 | [4] -0.007 | entinostat 0.021 | vorinostat -0.031 | citarinostat 0.052 | silmitasertib 0.007 | [5] -0.051 | [6] -0.017 | entospletinib -0.039

EEF1E1 (UniProt O43324)
inactive: [1] 0.026 | [2] 0.021 | [3] 0.041 | [4] -0.045 | entinostat 0.042 | vorinostat 0.07 | citarinostat 0.045 | silmitasertib 0.099 | [5] 0.107 | [6] -0.1 | entospletinib 0.05

EIF3G (UniProt O75821)
inactive: [1] -0.039 | [2] -0.058 | [3] -0.034 | [4] -0.004 | entinostat 0.028 | vorinostat 0.084 | citarinostat 0.022 | silmitasertib 0.064 | [5] 0.015 | [6] -0.05 | entospletinib -0.011

ENO3 (UniProt P13929)
inactive: [1] 0.074 | [2] 0.088 | [3] 0.02 | [4] 0.15 | entinostat 0.037 | vorinostat 0.03 | citarinostat 0.029 | silmitasertib 0.055 | [5] -0.006 | [6] 0.019 | entospletinib -0.054

EIF4G2 (UniProt P78344)
inactive: [1] 0.017 | [2] -0.028 | [3] 0.139 | [4] 0.004 | entinostat 0.073 | vorinostat 0.047 | citarinostat -0.182 | silmitasertib 0.155 | [5] 0.285 | [6] -0.332 | entospletinib 0.233

2 consecutive records from above, for reference:
ELMOD2 (UniProt Q8IZ81)
inactive: [1] 0.004 | [2] -0.041 | [3] -0.071 | [4] -0.007 | entinostat 0.021 | vorinostat -0.031 | citarinostat 0.052 | silmitasertib 0.007 | [5] -0.051 | [6] -0.017 | entospletinib -0.039

EEF1E1 (UniProt O43324)
inactive: [1] 0.026 | [2] 0.021 | [3] 0.041 | [4] -0.045 | entinostat 0.042 | vorinostat 0.07 | citarinostat 0.045 | silmitasertib 0.099 | [5] 0.107 | [6] -0.1 | entospletinib 0.05

The list goes on:

EML2 isoform 3 (UniProt O95834)
inactive: [1] -0.011 | [2] -0.064 | [3] -0.157 | [4] -0.05 | entinostat -0.016 | vorinostat 0.034 | citarinostat -0.004 | silmitasertib -0.026 | [5] 0 | [6] -0.072 | entospletinib 0.016

EIF4A2 isoform 2 (UniProt Q14240)
inactive: [1] 0.005 | [2] -0.053 | [3] -0.049 | [4] -0.04 | entinostat 0.044 | vorinostat 0.023 | citarinostat 0.056 | silmitasertib -0.005 | [5] -0.006 | [6] -0.064 | entospletinib -0.04

ELAVL1 isoform 2 (UniProt Q15717)
inactive: [1] 0 | [2] 0.024 | [3] 0.323 | [4] 0.044 | entinostat 0.03 | vorinostat 0.02 | citarinostat -0.101 | silmitasertib 0.274 | [5] 0.253 | [6] -0.099 | entospletinib 0.121

EIF2D (UniProt P41214)
inactive: [1] -0.151 | [2] -0.199 | [3] -0.153 | [4] -0.103 | entinostat 0.095 | vorinostat 0.147 | citarinostat 0.07 | silmitasertib 0.023 | [5] 0.138 | [6] -0.047 | entospletinib 0.087

EML4 (UniProt Q9HC35)
inactive: [1] 0.011 | [2] -0.017 | [3] -0.071 | [4] -0.01 | entinostat 0.03 | vorinostat 0.06 | citarinostat 0 | silmitasertib 0.021 | [5] 0.149 | [6] -0.071 | entospletinib 0.08

EMC1 (UniProt Q8N766)
inactive: [1] 0.012 | [2] -0.002 | [3] -0.094 | [4] 0.01 | entinostat 0.009 | vorinostat -0.009 | citarinostat 0.056 | silmitasertib 0.032 | [5] 0.03 | [6] -0.035 | entospletinib -0.017

ENOSF1 (UniProt Q7L5Y1)
inactive: [1] -0.043 | [2] 0.051 | [3] -0.15 | [4] -0.031 | entinostat -0.036 | vorinostat -0.014 | citarinostat -0.088 | silmitasertib 0.003 | [5] -0.038 | [6] -0.062 | entospletinib 0.041

EIF1AX (UniProt P47813)
inactive: [1] 0.012 | [2] 0.01 | [3] 0.019 | [4] 0.012 | entinostat 0.033 | vorinostat 0.023 | citarinostat -0.002 | silmitasertib -0.028 | [5] 0.017 | [6] -0.009 | entospletinib 0.031

EIF4ENIF1 isoform 3 (UniProt Q9NRA8)
inactive: [1] -0.045 | [2] 0.005 | [3] -0.223 | [4] -0.086 | entinostat -0.004 | vorinostat -0.061 | citarinostat 0.081 | silmitasertib 0.042 | [5] -0.024 | [6] -0.011 | entospletinib 0.025

EEFSEC (UniProt P57772)
inactive: [1] 0.08 | [2] -0.073 | [3] -0.126 | [4] -0.025 | entinostat 0.049 | vorinostat 0.116 | citarinostat -0.024 | silmitasertib 0.045 | [5] 0.051 | [6] -0.17 | entospletinib 0.062

EMC6 (UniProt Q9BV81)
inactive: [1] 0.064 | [2] 0.038 | [3] -0.056 | [4] -0.074 | entinostat -0.028 | vorinostat 0.13 | citarinostat 0.102 | silmitasertib -0.007 | [5] -0.105 | [6] -0.022 | entospletinib 0.099

EFTUD2 (UniProt Q15029)
inactive: [1] 0.073 | [2] 0.036 | [3] 0.039 | [4] 0.061 | entinostat -0.044 | vorinostat 0.002 | citarinostat 0.009 | silmitasertib -0.005 | [5] 0.036 | [6] -0.036 | entospletinib -0.003

EIF5A isoform 2 (UniProt P63241)
inactive: [1] 0.048 | [2] -0.018 | [3] -0.125 | [4] -0.006 | entinostat 0.072 | vorinostat 0.088 | citarinostat 0.11 | silmitasertib -0.022 | [5] -0.013 | [6] 0.017 | entospletinib -0.043

EIF4EBP2 (UniProt Q13542)
inactive: [1] -0.109 | [2] 0.223 | [3] 0.025 | [4] -0.126 | entinostat 0.187 | vorinostat -0.059 | citarinostat 0.02 | silmitasertib -0.067 | [5] -0.071 | [6] -0.09 | entospletinib 0.016

ENO1 isoform 2 (UniProt P06733)
inactive: [1] 0.015 | [2] 0.042 | [3] -0.006 | [4] 0.033 | entinostat -0.076 | vorinostat 0.138 | citarinostat 0.128 | silmitasertib -0.078 | [5] -0.1 | [6] 0.113 | entospletinib -0.067

EEF1A2 (UniProt Q05639)
inactive: [1] -0.023 | [2] -0.06 | [3] 0.021 | [4] -0.023 | entinostat -0.011 | vorinostat 0.022 | citarinostat 0.03 | silmitasertib -0.07 | [5] -0.048 | [6] -0.043 | entospletinib -0.025

EMC2 (UniProt Q15006)
inactive: [1] 0.014 | [2] -0.027 | [3] -0.065 | [4] -0.015 | entinostat 0.02 | vorinostat 0.018 | citarinostat 0.021 | silmitasertib -0.027 | [5] -0.014 | [6] -0.011 | entospletinib -0.013

EIF3A (UniProt Q14152)
inactive: [1] -0.059 | [2] -0.002 | [3] -0.119 | [4] -0.046 | entinostat 0.09 | vorinostat 0.086 | citarinostat 0.054 | silmitasertib 0.051 | [5] 0.111 | [6] -0.094 | entospletinib 0.037

EFNB1 (UniProt P98172)
inactive: [1] 0.047 | [2] 0.093 | [3] -0.05 | [4] 0.054 | entinostat 0.01 | vorinostat -0.049 | citarinostat 0.073 | silmitasertib -0.051 | [5] 0.106 | [6] 0.171 | entospletinib -0.041

EEF1A1P5 (UniProt Q5VTE0)
inactive: [1] -0.005 | [2] -0.018 | [3] -0.141 | [4] -0.025 | entinostat 0.004 | vorinostat 0.005 | citarinostat 0.042 | silmitasertib 0 | [5] -0.024 | [6] -0.073 | entospletinib -0.061

EIF2B5 (UniProt Q13144)
inactive: [1] -0.01 | [2] -0.043 | [3] -0.03 | [4] -0.005 | entinostat 0.007 | vorinostat 0.017 | citarinostat 0.043 | silmitasertib 0.046 | [5] 0.05 | [6] -0.047 | entospletinib 0.003

EIF3E (UniProt P60228)
inactive: [1] -0.092 | [2] -0.041 | [3] -0.064 | [4] -0.039 | entinostat 0.091 | vorinostat 0.038 | citarinostat 0.07 | silmitasertib 0.075 | [5] 0.2 | [6] -0.094 | entospletinib 0.12
